The whole screen tested about 580,000 compounds, of which about 6,100 (1.1%) were called active. This list was built around the results that the source calls inconclusive (neither active nor inactive); the mix of calls is not that of the screen. Calls follow the shape of the dose curve; as a rule, active = well fitted inhibition curve with a large enough effect; inconclusive = small, poorly fitted or top-dose-only effect, or another doubt; inactive = no such curve, though single readings can be large or run the other way. Potencies beside an inconclusive call are fits to weak or partial responses and may not hold up.
These compounds were tested against Polyunsaturated fatty acid lipoxygenase ALOX12 (Homo sapiens) (UniProt P18054) (assay: Primary qHTS assay for inhibitors of human arachidonate 12S-lipoxygenase (ALOX12): Round 2). Conditions: purified 12hLO, xylenol orange hydroperoxide absorbance; activity change, negative = inhibition: at 108 µM (top of the series) unless noted.
In short: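 Purified human 12hLO at 150 nM in 25 mM Hepes, 0.01% Triton X-100, pH 7.0, preincubated 15 min at room temperature with compound. Reaction started with 40 uM arachidonic acid, 30 min at room temperature. Hydroperoxide measured by Fe-xylenol orange, 573/405 nm absorbance ratio.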
% is scaled to controls: 0 for no effect and ±100 for the full control effect; potency is read from the fitted curve at half-maximal effect.

The chains behind the UniProt entries cited, without tags or fusion partners.
UniProt P18054, whole entry, looked up: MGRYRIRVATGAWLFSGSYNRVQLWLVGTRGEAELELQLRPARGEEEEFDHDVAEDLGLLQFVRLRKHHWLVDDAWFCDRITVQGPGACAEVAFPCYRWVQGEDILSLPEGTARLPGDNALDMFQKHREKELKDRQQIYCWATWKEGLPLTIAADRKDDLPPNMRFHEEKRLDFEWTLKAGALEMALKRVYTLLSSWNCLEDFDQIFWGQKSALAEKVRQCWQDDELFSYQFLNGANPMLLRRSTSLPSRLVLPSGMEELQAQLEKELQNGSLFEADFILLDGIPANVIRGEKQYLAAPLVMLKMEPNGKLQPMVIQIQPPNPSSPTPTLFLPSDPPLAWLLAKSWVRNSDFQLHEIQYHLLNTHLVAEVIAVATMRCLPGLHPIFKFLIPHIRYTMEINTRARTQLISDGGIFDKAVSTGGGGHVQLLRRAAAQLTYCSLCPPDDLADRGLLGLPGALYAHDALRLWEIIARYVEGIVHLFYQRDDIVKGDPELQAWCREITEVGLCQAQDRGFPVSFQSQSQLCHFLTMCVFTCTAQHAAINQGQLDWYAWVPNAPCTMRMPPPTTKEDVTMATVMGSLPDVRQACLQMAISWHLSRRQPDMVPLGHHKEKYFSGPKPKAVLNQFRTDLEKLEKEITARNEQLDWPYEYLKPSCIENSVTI

Row | Structure (SMILES) | Potency | activity change, negative = inhibition
1 | O=C(Cn1nnc(-c2ccccc2)n1)Nc1cccc(S(=O)(=O)N2CCCC2)c1 | inactive | 
2 | O=C(OCC(=O)N1N=C(c2ccc(Cl)cc2)CC1c1ccco1)c1cncc(Br)c1 (stereo unspecified) | active: 7.94 µM | 
3 | Cc1ccc2c(C)nc(Nc3nc(C)c(Cc4ccccc4)c(=O)[nH]3)nc2c1 | inconclusive: 89.1 µM [inhibitor, single point] | 
4 | O=[S+]([O-])(Nc1nncs1)c1ccc2c(c1)OCCN(Cc1cncc(F)c1)C2 | inconclusive: 56.2 µM [inhibitor, partial curve] | 
5 | COc1cc(NC(=S)NCc2ccc(S(N)(=O)=O)cc2)c(OC)cc1Cl | inconclusive: 79.4 µM [inhibitor, single point] | 
6 | CCCNc1nc(=S)n(-c2ccccc2)c(C)c1C(C)=O | inconclusive: 44.7 µM [inhibitor, partial curve, poor fit] | 
7 | O=C(O)c1ccc(COc2ccccc2/C=C2\NC(=O)N(Cc3ccccc3F)C2=O)cc1 | inconclusive: 44.7 µM [inhibitor, partial curve, poor fit] | 
8 | CC(C)C(=O)NC(NCc1ccccc1)C(Cl)(Cl)Cl (stereo unspecified) | inactive | 
9 | Fc1ccccc1N1NC2(CCCCC2)NC1=S | inconclusive: 5.01 µM [inhibitor, full curve, poor fit] | 
10 | CN(C)CCNCc1ccco1 | inactive | 
11 | Oc1c(Br)cc(Br)cc1/C=N/c1nccs1 | inactive | 
12 | CCC1(CC)NC(=O)N(CC(=O)OCc2nc3cc(C(=O)OC)ccc3c(=O)[nH]2)C1=O | inactive | 
13 | O=[S@]1Oc2ccccc2-c2ccccc21 | inconclusive: 100 µM [inhibitor, single point] | 
14 | CCN(CC)C(=O)CSC1=Nc2ccccc2C2=NC(Cc3c[nH]c4ccccc34)C(=O)N12 (stereo unspecified) | inactive | 
15 | C=CCOc1c(Cl)cc(CNc2ccc(N(C)C)cc2)cc1OC | inconclusive: 31.6 µM [inhibitor, partial curve, poor fit] | 
16 | [O-][n+]1c2c(c3c4non(O)c4ccc31)CCCC2 | inconclusive: 56.2 µM [inhibitor, partial curve, poor fit] | 
17 | CCC1C(=NO)C(CC)C(c2ccccc2)NC1c1ccccc1 (stereo unspecified) | inactive | 
18 | C=C1C(=O)CC2=C1[C@](Cc1ccc(F)cc1)(C(=O)OC)N(C(=O)c1ccccc1)C2 | inconclusive: 0.282 µM [inhibitor, single point] | 
19 | COc1ccc(OC)c(CN2CCN(C(=O)c3ccc(S(=O)(=O)N4CCCCCC4)cc3)CC2)c1 | inactive | 
20 | CC(NCCO)C(=O)C12CC3CC(CC(C3)C1)C2 (stereo unspecified) | inconclusive: 7.08 µM [inhibitor, partial curve, poor fit] | 
21 | CCc1ccccc1Nc1nc(N)nc(COC(=O)CCS(=O)(=O)c2ccccc2)n1 | inconclusive: 44.7 µM [inhibitor, single point] | 
22 | O=C(c1ccc(Cl)cc1)N(Cc1ccco1)Cc1ccco1 | inactive | 

Of the compounds above, 2 have a carbonyl joined to an NH by a bond outside any ring.
Row | Structure (SMILES) | Potency | activity change, negative = inhibition
1 | O=C(Cn1nnc(-c2ccccc2)n1)Nc1cccc(S(=O)(=O)N2CCCC2)c1 | inactive | 
8 | CC(C)C(=O)NC(NCc1ccccc1)C(Cl)(Cl)Cl (stereo unspecified) | inactive | 

Following part:

Row | Structure (SMILES) | Potency | activity change, negative = inhibition
23 | N#Cc1cc2c([nH]c1=S)CCCC2 | active: 14.1 µM | 
24 | O=C(O)c1ccc(CN[C@@H]2CO[C@H](CNS(=O)(=O)c3ccccc3)[C@H]2O)cc1 | inconclusive: 35.5 µM [inhibitor, full curve] | 
25 | CCC(=O)Nc1ccc(-c2csc(NC3CC3)n2)cc1 | inconclusive: 17.8 µM [inhibitor, full curve] | 
26 | CCC(=O)Nc1ccc(C)cc1-c1nc2ccccc2n(CC(=O)Nc2ccccc2Cl)c1=O | inconclusive: 56.2 µM [inhibitor, partial curve, poor fit] | 
27 | CCc1ccc(CNC(=O)C2CCN(c3cc(C(F)(F)F)ncn3)CC2)cc1 | inactive | 
28 | CCN1CCN(c2ccc(S(=O)(=O)N3CCCCC3)cc2NC(=O)c2ccccc2)CC1 | inconclusive: 39.8 µM [inhibitor, partial curve, poor fit] | 
29 | O=C(COc1ccc(F)cc1Br)N1CCc2ccccc21 | inconclusive: 50.1 µM [inhibitor, partial curve, poor fit] | 
30 | CCCS(=O)(=O)N1CCC(Oc2ccccc2-c2nc(-c3ccncc3)no2)C1 (stereo unspecified) | inactive | 
31 | COC(=O)[C@H]1CN(C(=O)c2cccnc2)CCN1C(=O)N1CCOCC1 | inconclusive: 28.2 µM [inhibitor, partial curve] | 
32 | Cc1ccccc1NC(=O)c1c(C)oc2ccc(O)c(CN3CCCC3)c12 |  | inconclusive: -30.6% [inhibitor]
33 | Cc1sc2ncnc(N3CCC(C(=O)NCC(=O)Nc4ccc(F)c(F)c4)CC3)c2c1C | inactive | 
34 | Cc1cccc(NC(=S)NC2CCCC(C)C2C)c1 (stereo unspecified) | inconclusive: 44.7 µM [inhibitor, partial curve, poor fit] | 
35 | CCOc1cc(-c2cc(-c3ccccc3)nc(N)c2C#N)ccc1O | inconclusive: 56.2 µM [inhibitor, partial curve, poor fit] | 
36 | CC(C)n1cnc2c(NCCc3ccc(O)cc3)nc(-c3csc4ccccc34)nc21 | inconclusive: 2.73 µM [inhibitor, partial curve, poor fit] | 
37 | O=C(O)Cn1ccc2cc(OCc3cccc(-c4ccc(F)c(Cl)c4)c3)cnc21 | active: 50.1 µM | 
38 | O=C(NCC(Cl)c1ccc2ccccc2c1)c1c(F)cccc1F (stereo unspecified) | active: 35.5 µM | 
39 | CCOC(=O)COc1ccc2c(=O)c(Oc3ccccc3Br)coc2c1 | inactive | 
40 | COc1cc(C(=O)CSc2ccc(Cl)cc2)cc(OC)c1OC | inconclusive: 89.1 µM [inhibitor, single point] | 
41 | CCOc1cccc(CN2CCC(n3nccc3NC(=O)C3CCCC3)CC2)c1 | inactive | 
42 | CCCCCCCCCCS(=O)(=O)N/N=C/c1cccc([N+](=O)[O-])c1 | inconclusive: 31.6 µM [inhibitor, partial curve, poor fit] | 
43 | CCc1nc2ccc(C(=O)NCc3cccs3)cn2c1N(CC)CCOC | inactive | 
44 | C/C(=N\O)C(C)(C)Nc1ccc(F)cc1 | inconclusive: 70.8 µM [inhibitor, partial curve, poor fit] | 

Row | Structure (SMILES) | Potency | activity change, negative = inhibition
45 | CC1(C)[C@H](O[C@H]2O[C@H](C(=O)O)[C@@H](O)[C@H](O)[C@H]2O[C@@H]2O[C@H](C(=O)O)[C@@H](O)[C@H](O)[C@H]2O)CC[C@@]2(C)[C@H]1CC[C@]1(C)[C@H]2C(=O)C=C2[C@H]3C[C@@](C)(C(=O)O)CC[C@]3(C)CC[C@]21C | active: 8.63 µM | 
46 | O=C(COc1ccc2ccccc2c1)Nc1cccc(C(=O)Nc2ccccc2C(=O)O)c1 | inconclusive: 56.2 µM [inhibitor, partial curve, poor fit] | 
47 | CN(Cc1ccccc1)C(=O)C1CCCN(Cc2ccc(Cl)cc2)C1 (stereo unspecified) | inconclusive: 2.51 µM [inhibitor, full curve, poor fit] | 
48 | COc1ccccc1N1CCN(C(=O)c2ccc(CSc3ccccc3)cc2)CC1 | inactive | 
49 | Cc1ccc2c(c1)cc(C(=O)N[C@@H](Cc1ccccc1)C(=O)O)n2C | inconclusive: 44.7 µM [inhibitor, partial curve, poor fit] | 
50 | CCCC(C(=O)Nc1nc2ccc(F)cc2s1)c1ccccc1 (stereo unspecified) | inconclusive: 50.1 µM [inhibitor, partial curve, poor fit] | 
51 | O=C1NC(=Nc2ccccc2)S/C1=C\c1cccn1-c1ccccc1 | inconclusive: 112 µM [inhibitor, single point] | 
52 | Cc1ccc2ncc(C(=O)NCCc3ccc(S(N)(=O)=O)cc3)c(=O)n2c1 | inactive | 
53 | Cc1cn([C@@H](CCCCN)C(=O)NCCCCCCCCCCC(=O)N2CCNCC2)nn1 | active: 31.6 µM | 
54 | COc1ccc(CCNC(=O)CCCn2c(=O)c3ccccc3n(Cc3ccc(C)cc3)c2=O)cc1OC | inconclusive: 63.1 µM [inhibitor, partial curve, poor fit] | 
55 | O=S(=O)(/N=C(\Sc1ccccc1)c1ccccc1)c1ccc(Cl)cc1 | inconclusive: 35.5 µM [inhibitor, partial curve, poor fit] | 
56 | Cc1cc(C)cc(OCC(=O)OCC(=O)Nc2cc(S(=O)(=O)N3CCOCC3)ccc2Cl)c1 | inconclusive: 50.1 µM [inhibitor, single point] | 
57 | COc1cc2c(c(OC)c1OC)C(c1ccc(C)cc1)CC(=O)O2 (stereo unspecified) | inconclusive: 112 µM [inhibitor, single point] | 
58 | Cc1nc2c(C(=O)NCc3ccc(F)cc3)c[nH]n2c(=O)c1Cl | inconclusive: 39.8 µM [inhibitor, partial curve, poor fit] | 
59 | NNc1nc2c(Cl)cccc2s1 | active: 17.8 µM | 
60 | COc1cc(OC)cc(C(=O)Nc2sc3c(c2C(N)=O)CCC3)c1 | inconclusive: 158 µM [inhibitor, single point] | 
61 | CCNC(=O)c1cc2c(-c3cc(OCCN4CCCC4)c(Cl)cc3Cl)nc(N)nc2s1 | inconclusive: 27.3 µM [inhibitor, partial curve, poor fit] | 
62 | O=C(Cc1cccc(F)c1)N1CCC(c2nc(C3CCOCC3)no2)C1 (stereo unspecified) | inconclusive: 11.2 µM [inhibitor, partial curve, poor fit] | 
63 | O=C1C(Cc2ccccc2)Nc2ncnc(N3CCOCC3)c2N1Cc1ccc(Br)cc1 (stereo unspecified) | inconclusive: 35.5 µM [inhibitor, partial curve, poor fit] | 
64 | O=C(N/N=C/c1cccs1)c1cccc(N/N=C/c2cccs2)c1 | inconclusive: 6.31 µM [inhibitor, full curve, poor fit] | 
65 | Cn1c(NC(=O)C2CC2)cc(=O)n(C)c1=O | inconclusive: 112 µM [inhibitor, single point] | 
66 | CCOC(=O)c1cnc2ccc(C)cc2c1Nc1ccccc1OCC | inconclusive: 44.7 µM [inhibitor, partial curve, poor fit] | 
